Results are given in words; binding and its absence hold for the method and conditions named. Binding seen in cells or lysates may run through a third protein. Here binding means that the protein was enriched with, or labelled near, the bait; the list need not be complete.
Target: Tau-APEX2 (APEX2 fused to the C-terminus of Tau) (human) (UniProt P10636)
Assay: proximity labelling; Tau-APEX2 incubated with HEK293T cells over-expressing Flag-tagged ITGαV or GFP-tagged ITGβ1; cell surface biotinylation, streptavidin pulldown, immunoblotting with tag antibodies; only the target purified

Protein sequences, listed by entry. Tags and fused reporters are not part of them. Lines headed by an entry give the natural chain unless they say otherwise; changes in a name come on top. Residues count along the entry.
UniProt P10636: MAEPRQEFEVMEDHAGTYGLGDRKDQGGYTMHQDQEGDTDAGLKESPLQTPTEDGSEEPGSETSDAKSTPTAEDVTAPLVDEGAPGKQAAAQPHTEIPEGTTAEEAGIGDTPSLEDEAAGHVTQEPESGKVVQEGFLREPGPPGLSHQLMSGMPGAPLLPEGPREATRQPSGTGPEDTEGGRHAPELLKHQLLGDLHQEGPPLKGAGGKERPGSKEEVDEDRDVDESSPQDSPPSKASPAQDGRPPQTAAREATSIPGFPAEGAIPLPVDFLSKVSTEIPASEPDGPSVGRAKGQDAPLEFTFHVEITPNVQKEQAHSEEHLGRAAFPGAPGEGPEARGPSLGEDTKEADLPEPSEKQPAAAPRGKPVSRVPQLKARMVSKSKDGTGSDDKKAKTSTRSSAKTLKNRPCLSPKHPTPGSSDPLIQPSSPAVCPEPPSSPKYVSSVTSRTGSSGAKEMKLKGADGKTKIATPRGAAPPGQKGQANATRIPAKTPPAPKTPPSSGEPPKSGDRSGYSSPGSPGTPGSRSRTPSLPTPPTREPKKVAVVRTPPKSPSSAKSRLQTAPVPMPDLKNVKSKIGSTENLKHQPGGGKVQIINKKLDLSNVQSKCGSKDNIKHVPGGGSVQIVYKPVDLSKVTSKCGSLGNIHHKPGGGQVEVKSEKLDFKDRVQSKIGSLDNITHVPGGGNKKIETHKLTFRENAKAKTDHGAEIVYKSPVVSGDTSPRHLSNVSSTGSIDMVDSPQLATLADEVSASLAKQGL
UniProt P06756, residues 31-1048: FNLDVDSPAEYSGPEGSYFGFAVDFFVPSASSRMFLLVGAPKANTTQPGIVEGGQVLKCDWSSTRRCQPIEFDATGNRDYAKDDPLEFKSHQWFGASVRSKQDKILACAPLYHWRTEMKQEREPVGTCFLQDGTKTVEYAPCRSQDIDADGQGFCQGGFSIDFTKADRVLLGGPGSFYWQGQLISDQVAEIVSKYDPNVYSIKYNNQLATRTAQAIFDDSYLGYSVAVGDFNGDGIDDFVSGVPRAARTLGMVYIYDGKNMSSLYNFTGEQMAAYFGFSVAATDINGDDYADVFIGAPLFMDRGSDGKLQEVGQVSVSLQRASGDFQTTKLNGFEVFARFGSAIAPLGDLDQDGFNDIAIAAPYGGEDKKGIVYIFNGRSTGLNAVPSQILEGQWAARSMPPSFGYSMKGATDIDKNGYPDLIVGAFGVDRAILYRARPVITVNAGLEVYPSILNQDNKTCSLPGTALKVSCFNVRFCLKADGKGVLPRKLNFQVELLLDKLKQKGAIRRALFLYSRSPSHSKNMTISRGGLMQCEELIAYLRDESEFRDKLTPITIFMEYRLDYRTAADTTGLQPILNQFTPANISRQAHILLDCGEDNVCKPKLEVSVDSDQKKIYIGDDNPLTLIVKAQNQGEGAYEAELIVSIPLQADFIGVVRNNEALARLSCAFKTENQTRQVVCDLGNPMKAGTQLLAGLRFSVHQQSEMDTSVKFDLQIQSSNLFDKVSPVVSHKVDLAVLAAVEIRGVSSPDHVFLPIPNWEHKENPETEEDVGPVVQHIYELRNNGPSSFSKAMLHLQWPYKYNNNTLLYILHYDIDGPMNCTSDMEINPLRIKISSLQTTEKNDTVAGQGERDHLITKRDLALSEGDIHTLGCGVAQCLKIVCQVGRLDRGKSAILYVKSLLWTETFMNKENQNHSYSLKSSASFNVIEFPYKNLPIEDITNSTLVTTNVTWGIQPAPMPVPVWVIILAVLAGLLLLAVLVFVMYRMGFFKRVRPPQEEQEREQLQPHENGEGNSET
UniProt P05556: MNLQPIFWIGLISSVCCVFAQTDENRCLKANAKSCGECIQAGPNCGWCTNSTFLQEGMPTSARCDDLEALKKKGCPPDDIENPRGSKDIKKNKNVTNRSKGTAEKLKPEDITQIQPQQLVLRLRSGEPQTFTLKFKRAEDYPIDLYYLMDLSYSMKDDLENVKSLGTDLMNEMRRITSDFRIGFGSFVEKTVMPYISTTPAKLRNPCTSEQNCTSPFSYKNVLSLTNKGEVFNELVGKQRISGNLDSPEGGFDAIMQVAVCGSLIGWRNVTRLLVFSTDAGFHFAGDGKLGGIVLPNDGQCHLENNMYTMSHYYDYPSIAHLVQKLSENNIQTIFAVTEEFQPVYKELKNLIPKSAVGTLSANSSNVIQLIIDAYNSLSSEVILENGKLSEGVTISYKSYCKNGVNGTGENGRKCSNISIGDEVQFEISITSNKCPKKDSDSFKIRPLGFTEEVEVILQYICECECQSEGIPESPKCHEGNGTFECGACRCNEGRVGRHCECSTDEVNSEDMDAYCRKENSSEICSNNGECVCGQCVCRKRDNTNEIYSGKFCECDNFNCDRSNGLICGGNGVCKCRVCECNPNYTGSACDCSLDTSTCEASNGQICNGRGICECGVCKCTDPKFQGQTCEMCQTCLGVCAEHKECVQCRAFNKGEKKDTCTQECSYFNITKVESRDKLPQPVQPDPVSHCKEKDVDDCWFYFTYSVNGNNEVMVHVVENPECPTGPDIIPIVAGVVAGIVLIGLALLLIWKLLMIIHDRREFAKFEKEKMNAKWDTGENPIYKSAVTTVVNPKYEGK

Substance: Flag-tagged ITGαV (from UniProt P06756 31-1048) (receptor)
- binding: binds

Substance: GFP-tagged ITGβ1 (from UniProt P05556 21-798) (receptor)
- binding: binds

Source: PMC7782792
